# Test results from patent CN112552406A.
# Residue numbers refer to the chain shown, from its start. No constants are given. Whether binding was seen depends on the method and setting. Some entries that bind do so weakly or less than the wild type.
# B1: 人源化CQ137单抗(137-1) (antibody, V domains shown)
# VH: QVQLVQSGAEVKKPGASVKVSCKASGYTFTGYYIHWVRQAPGQGLEWMGRINPYNGATTYNQNFKDRVTMTVDKSTSTAYMELRSLRSDDTAVYYCARFHYGAPDYWGQGTLVTVSS
# VL: DIQMTQSPSSLSASVGDRVTITCKASQDINTYLTWFQQKPGKAPKTLIYRANILVDGVPSRFSGSGSGQDYTLTISSLQPEDFATYYCLQYDEFPLTFGGGTKVEIKR
# B2: 人源化CQ137单抗(137-2) (antibody, V domains shown)
# VH: B1 VH with T28S
# VL: B1 VL with T46S, Q69T, Y71F
# B3: 人源化CQ137单抗(137-3) (antibody, V domains shown)
# VH: B1 VH with A16S, T28S, M70I, R84S, D89E
# VL: B1 VL with F36Y, Q69T, Y71F
# Target: 猴CD73全长 on CHOK1-cynoCD73细胞 (猴 (cyno))
# Test: flow cytometry on CHOK1-cynoCD73 cells
row,Binder,binding
1,B1,binds
2,B2,binds
3,B3,binds
